According to the supplement of paper PMC10032668:
The list shows a part of the results. The list holds hits alone, and they repeat only in part.

Protein sequences, listed by entry. Tags and fused reporters are not part of them.
CRIPT, Q9P021, UniProt Q9P021, whole entry: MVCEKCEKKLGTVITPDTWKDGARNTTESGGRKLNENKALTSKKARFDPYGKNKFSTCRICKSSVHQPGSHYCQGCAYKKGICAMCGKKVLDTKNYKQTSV
PPP1CA, P62136, UniProt P62136, whole entry: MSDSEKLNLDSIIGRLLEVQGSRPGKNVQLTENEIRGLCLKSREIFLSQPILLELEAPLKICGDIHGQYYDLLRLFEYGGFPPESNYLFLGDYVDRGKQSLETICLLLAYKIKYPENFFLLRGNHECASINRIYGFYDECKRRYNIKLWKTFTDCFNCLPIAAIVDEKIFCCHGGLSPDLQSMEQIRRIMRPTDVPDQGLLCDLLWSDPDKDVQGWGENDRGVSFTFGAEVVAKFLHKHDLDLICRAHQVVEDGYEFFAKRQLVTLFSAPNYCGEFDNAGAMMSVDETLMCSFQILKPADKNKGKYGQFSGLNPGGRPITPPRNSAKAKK
RPS6KA3, P51812, UniProt P51812, whole entry: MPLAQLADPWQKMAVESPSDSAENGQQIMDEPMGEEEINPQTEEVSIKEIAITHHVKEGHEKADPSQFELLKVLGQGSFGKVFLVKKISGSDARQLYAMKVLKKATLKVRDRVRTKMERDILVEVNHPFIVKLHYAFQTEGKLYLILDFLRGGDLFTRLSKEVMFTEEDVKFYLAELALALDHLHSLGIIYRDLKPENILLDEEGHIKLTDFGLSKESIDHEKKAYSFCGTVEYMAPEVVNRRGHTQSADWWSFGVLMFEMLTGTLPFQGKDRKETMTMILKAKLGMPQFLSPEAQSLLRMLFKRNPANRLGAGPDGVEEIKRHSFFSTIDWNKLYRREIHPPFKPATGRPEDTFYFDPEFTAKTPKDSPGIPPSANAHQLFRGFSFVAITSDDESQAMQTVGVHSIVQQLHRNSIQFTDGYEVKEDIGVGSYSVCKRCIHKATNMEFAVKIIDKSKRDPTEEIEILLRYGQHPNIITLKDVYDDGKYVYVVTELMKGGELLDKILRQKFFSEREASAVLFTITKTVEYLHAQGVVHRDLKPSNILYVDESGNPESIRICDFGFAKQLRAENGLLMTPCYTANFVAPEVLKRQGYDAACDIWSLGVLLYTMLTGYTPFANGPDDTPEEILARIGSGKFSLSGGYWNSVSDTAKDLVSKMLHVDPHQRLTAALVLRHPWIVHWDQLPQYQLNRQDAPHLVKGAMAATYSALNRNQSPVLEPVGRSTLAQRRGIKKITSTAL
HIST1H1C, P16403, UniProt P16403, whole entry: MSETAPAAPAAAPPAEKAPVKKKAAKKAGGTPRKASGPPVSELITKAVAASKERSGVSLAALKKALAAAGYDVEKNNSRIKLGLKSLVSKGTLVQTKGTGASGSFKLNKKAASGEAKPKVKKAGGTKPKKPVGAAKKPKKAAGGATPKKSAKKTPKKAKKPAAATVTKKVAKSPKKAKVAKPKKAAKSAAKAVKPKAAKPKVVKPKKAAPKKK
HIST1H1D, P16402, UniProt P16402, whole entry: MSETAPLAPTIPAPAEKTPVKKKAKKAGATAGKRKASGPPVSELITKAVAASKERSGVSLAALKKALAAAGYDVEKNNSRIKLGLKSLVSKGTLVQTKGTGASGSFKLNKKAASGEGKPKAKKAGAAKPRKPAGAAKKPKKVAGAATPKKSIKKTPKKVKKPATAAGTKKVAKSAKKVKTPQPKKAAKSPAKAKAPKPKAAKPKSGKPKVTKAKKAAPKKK
MORF4L1, Q9UBU8, UniProt Q9UBU8, whole entry: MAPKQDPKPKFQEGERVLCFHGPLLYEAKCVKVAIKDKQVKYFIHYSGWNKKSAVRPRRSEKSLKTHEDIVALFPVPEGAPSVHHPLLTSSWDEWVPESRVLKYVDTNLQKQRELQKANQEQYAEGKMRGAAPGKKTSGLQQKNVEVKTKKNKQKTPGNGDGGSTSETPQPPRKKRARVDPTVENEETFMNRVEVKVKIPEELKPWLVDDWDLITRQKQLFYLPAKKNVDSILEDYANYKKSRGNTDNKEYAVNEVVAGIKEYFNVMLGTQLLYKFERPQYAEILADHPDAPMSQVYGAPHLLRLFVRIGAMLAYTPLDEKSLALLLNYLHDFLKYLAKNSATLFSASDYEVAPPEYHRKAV
MORF4L2, Q15014, UniProt Q15014, whole entry: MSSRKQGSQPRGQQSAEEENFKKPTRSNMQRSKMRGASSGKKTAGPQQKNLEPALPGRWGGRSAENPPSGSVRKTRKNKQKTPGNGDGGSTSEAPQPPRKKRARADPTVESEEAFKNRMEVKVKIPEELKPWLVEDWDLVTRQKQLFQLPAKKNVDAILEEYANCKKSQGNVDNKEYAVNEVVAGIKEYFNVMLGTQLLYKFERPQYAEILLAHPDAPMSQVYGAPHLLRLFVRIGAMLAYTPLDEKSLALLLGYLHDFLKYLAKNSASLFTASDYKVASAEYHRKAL
NDUFB7, P17568, UniProt P17568, whole entry: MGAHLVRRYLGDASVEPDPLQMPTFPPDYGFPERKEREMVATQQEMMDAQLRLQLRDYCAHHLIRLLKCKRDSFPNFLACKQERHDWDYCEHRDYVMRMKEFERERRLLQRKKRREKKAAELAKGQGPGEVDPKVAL
NDUFV1, P49821, UniProt P49821, whole entry: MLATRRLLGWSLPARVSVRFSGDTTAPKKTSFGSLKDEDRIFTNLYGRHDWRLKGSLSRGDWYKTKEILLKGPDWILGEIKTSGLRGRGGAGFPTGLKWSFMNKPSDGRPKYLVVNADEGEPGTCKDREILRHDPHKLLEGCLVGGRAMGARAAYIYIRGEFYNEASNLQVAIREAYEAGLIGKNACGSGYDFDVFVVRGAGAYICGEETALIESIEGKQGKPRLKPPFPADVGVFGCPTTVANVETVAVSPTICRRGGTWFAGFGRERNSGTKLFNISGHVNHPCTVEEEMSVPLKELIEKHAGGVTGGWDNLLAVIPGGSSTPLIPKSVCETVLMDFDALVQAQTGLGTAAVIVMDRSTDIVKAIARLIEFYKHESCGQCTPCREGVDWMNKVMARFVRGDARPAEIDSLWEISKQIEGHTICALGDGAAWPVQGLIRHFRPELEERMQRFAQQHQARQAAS
PIN4, Q9Y237, UniProt Q9Y237, whole entry: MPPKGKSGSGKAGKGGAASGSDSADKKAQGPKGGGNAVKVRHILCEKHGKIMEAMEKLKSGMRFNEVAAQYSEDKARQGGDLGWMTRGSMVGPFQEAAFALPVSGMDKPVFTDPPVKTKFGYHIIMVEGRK
PLK1, P53350, UniProt P53350, whole entry: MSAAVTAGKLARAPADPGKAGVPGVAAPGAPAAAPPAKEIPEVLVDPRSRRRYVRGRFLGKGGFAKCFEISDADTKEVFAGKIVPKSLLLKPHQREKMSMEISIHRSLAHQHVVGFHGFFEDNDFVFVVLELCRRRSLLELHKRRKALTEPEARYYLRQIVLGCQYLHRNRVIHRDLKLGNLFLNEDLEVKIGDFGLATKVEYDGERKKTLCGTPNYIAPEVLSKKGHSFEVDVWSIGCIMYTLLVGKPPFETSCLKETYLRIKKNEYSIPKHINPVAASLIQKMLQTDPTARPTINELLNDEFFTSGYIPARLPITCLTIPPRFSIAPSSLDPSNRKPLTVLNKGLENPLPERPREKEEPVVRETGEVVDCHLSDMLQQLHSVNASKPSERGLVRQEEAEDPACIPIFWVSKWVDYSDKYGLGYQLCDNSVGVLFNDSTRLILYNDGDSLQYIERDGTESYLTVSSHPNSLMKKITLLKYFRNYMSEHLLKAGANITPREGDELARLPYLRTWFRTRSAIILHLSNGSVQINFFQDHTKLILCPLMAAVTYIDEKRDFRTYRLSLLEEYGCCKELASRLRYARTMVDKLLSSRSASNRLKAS

What was measured:
Assay in all cases: PRISMA enrichment of interactor (LFQ) in peptide spot vs all other peptide spots (log2 fold change); higher = stronger / more specific binding of the interactor to the peptide
AGL, P35573 = biological target: AGL, P35573
Description: (§1)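 PRISMA: 15-aa overlapping tiles (offset 8 aa) of 60 microproteins, plus SOS1/GLUT1 control peptides, were spot-synthesized on cellulose membranes in triplicate. Membranes were incubated with benzonase-treated HEK293T lysate, and bound proteins were identified by LC-MS/MS with LFQ. Enrichment is the log2 fold change of each protein in one spot versus all other spots. Only interactors passing the significance cutoff are listed.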

CHPT1, Q8WUD6 = biological target: CHPT1, Q8WUD6
Description: as §1

CRIPT, Q9P021 = biological target: CRIPT, Q9P021
Description: as §1

CSNK2A2, P19784 = biological target: CSNK2A2, P19784
Description: as §1

DDX28, Q9NUL7 = biological target: DDX28, Q9NUL7
Description: as §1

MAP4K4, O95819 = biological target: MAP4K4, O95819
Description: as §1

MRPL13, Q9BYD1 = biological target: MRPL13, Q9BYD1
Description: as §1

MRPL40, Q9NQ50 = biological target: MRPL40, Q9NQ50
Description: as §1

PCLAF, Q15004 = biological target: PCLAF, Q15004
Description: as §1

PPIL2, Q13356 = biological target: PPIL2, Q13356
Description: as §1

PPP1CA, P62136 = biological target: PPP1CA, P62136
Description: as §1

RPS6KA3, P51812 = biological target: RPS6KA3, P51812
Description: as §1

SMU1, Q2TAY7 = biological target: SMU1, Q2TAY7
Description: as §1

AGPS, O00116 = biological target: AGPS, O00116
Description: as §1

ALYREF, Q86V81 = biological target: ALYREF, Q86V81
Description: as §1

AURKAIP1, Q9NWT8 = biological target: AURKAIP1, Q9NWT8
Description: as §1

C11orf98, E9PRG8 = biological target: C11orf98, E9PRG8
Description: as §1

C19orf53, Q9UNZ5 = biological target: C19orf53, Q9UNZ5
Description: as §1

CFAP20, Q9Y6A4 = biological target: CFAP20, Q9Y6A4
Description: as §1

CHMP4A, Q9BY43 = biological target: CHMP4A, Q9BY43
Description: as §1

CSNK1A1, P48729 = biological target: CSNK1A1, P48729
Description: as §1

CSNK1D, P48730 = biological target: CSNK1D, P48730
Description: as §1

CSNK1E, P49674 = biological target: CSNK1E, P49674
Description: as §1

CTNND1, O60716 = biological target: CTNND1, O60716
Description: as §1

CXorf56, Q9H5V9 = biological target: CXorf56, Q9H5V9
Description: as §1

DDX49, Q9Y6V7 = biological target: DDX49, Q9Y6V7
Description: as §1

EMG1, Q92979 = biological target: EMG1, Q92979
Description: as §1

H1FX, Q92522 = biological target: H1FX, Q92522
Description: as §1

HIST1H1C, P16403 = biological target: HIST1H1C, P16403
Description: as §1

HIST1H1D, P16402 = biological target: HIST1H1D, P16402
Description: as §1

HIST1H1T, P22492 = biological target: HIST1H1T, P22492
Description: as §1

MORF4L1, Q9UBU8 = biological target: MORF4L1, Q9UBU8
Description: as §1

MORF4L2, Q15014 = biological target: MORF4L2, Q15014
Description: as §1

MRPL34, Q9BQ48 = biological target: MRPL34, Q9BQ48
Description: as §1

MRRF, Q96E11 = biological target: MRRF, Q96E11
Description: as §1

NDUFB7, P17568 = biological target: NDUFB7, P17568
Description: as §1

NDUFV1, P49821 = biological target: NDUFV1, P49821
Description: as §1

NIFK, Q9BYG3 = biological target: NIFK, Q9BYG3
Description: as §1

OPA1, O60313 = biological target: OPA1, O60313
Description: as §1

PIN4, Q9Y237 = biological target: PIN4, Q9Y237
Description: as §1

PLK1, P53350 = biological target: PLK1, P53350
Description: as §1

[1] = substrate: PPIB, P23284
Description: as §1

[2] = substrate: PPIF, P30405
Description: as §1

PUSL1, Q8N0Z8 = biological target: PUSL1, Q8N0Z8
Description: as §1

RBIS, Q8N0T1 = biological target: RBIS, Q8N0T1
Description: as §1

SCP2, P22307 = biological target: SCP2, P22307
Description: as §1

SERF2, P84101 = biological target: SERF2, P84101
Description: as §1

SRP14, P37108 = biological target: SRP14, P37108
Description: as §1

ZNF22, P17026 = biological target: ZNF22, P17026
Description: as §1

ZNF687, Q8N1G0 = biological target: ZNF687, Q8N1G0
Description: as §1

hCG_2014768 = biological target: hCG_2014768
Description: as §1

LAAKGLRDPWGRNEA [NDUFB3]
PRISMA enrichment of interactor (log2) (AGL, P35573): 3.82
PRISMA enrichment of interactor (log2) (CHPT1, Q8WUD6): 5.27
PRISMA enrichment of interactor (log2) (CRIPT, Q9P021): 4.18
PRISMA enrichment of interactor (log2) (CSNK2A2, P19784): 6.09
PRISMA enrichment of interactor (log2) (DDX28, Q9NUL7): 5.17
PRISMA enrichment of interactor (log2) (MAP4K4, O95819): 4.68
PRISMA enrichment of interactor (log2) (MRPL13, Q9BYD1): 4.56
PRISMA enrichment of interactor (log2) (MRPL40, Q9NQ50): 4.32
PRISMA enrichment of interactor (log2) (PCLAF, Q15004): 4.2
PRISMA enrichment of interactor (log2) (PPIL2, Q13356): 4.92
PRISMA enrichment of interactor (log2) (PPP1CA, P62136): 5.25
PRISMA enrichment of interactor (log2) (RPS6KA3, P51812): 3.97
PRISMA enrichment of interactor (log2) (SMU1, Q2TAY7): 4.32

FLPDVLLSDSSDTSE [NAV2-AS2_2]
PRISMA enrichment of interactor (log2) (AGPS, O00116): 4
PRISMA enrichment of interactor (log2) (ALYREF, Q86V81): 5.46
PRISMA enrichment of interactor (log2) (AURKAIP1, Q9NWT8): 4.66
PRISMA enrichment of interactor (log2) (C11orf98, E9PRG8): 5.34
PRISMA enrichment of interactor (log2) (C19orf53, Q9UNZ5): 9.05
PRISMA enrichment of interactor (log2) (CFAP20, Q9Y6A4): 4.36
PRISMA enrichment of interactor (log2) (CHMP4A, Q9BY43): 4.45
PRISMA enrichment of interactor (log2) (CSNK1A1, P48729): 5.83
PRISMA enrichment of interactor (log2) (CSNK1D, P48730): 4.77
PRISMA enrichment of interactor (log2) (CSNK1E, P49674): 5.6
PRISMA enrichment of interactor (log2) (CTNND1, O60716): 7.33
PRISMA enrichment of interactor (log2) (CXorf56, Q9H5V9): 4.57
PRISMA enrichment of interactor (log2) (DDX49, Q9Y6V7): 5.45
PRISMA enrichment of interactor (log2) (EMG1, Q92979): 7.67
PRISMA enrichment of interactor (log2) (H1FX, Q92522): 5.14
PRISMA enrichment of interactor (log2) (HIST1H1C, P16403): 6.5
PRISMA enrichment of interactor (log2) (HIST1H1D, P16402): 7.69
PRISMA enrichment of interactor (log2) (HIST1H1T, P22492): 4.63
PRISMA enrichment of interactor (log2) (MORF4L1, Q9UBU8): 4.58
PRISMA enrichment of interactor (log2) (MORF4L2, Q15014): 6.18
PRISMA enrichment of interactor (log2) (MRPL34, Q9BQ48): 4.54
PRISMA enrichment of interactor (log2) (MRRF, Q96E11): 4.85
PRISMA enrichment of interactor (log2) (NDUFB7, P17568): 4.81
PRISMA enrichment of interactor (log2) (NDUFV1, P49821): 11.2
PRISMA enrichment of interactor (log2) (NIFK, Q9BYG3): 4.48
PRISMA enrichment of interactor (log2) (OPA1, O60313): 5
PRISMA enrichment of interactor (log2) (PIN4, Q9Y237): 4.82
PRISMA enrichment of interactor (log2) (PLK1, P53350): 4.82
PRISMA enrichment of interactor (log2) [1]: 5.48
PRISMA enrichment of interactor (log2) [2]: 7.32
PRISMA enrichment of interactor (log2) (PUSL1, Q8N0Z8): 5.02
PRISMA enrichment of interactor (log2) (RBIS, Q8N0T1): 4.53
PRISMA enrichment of interactor (log2) (SCP2, P22307): 4.99
PRISMA enrichment of interactor (log2) (SERF2, P84101): 6.68
PRISMA enrichment of interactor (log2) (SRP14, P37108): 5.59
PRISMA enrichment of interactor (log2) (ZNF22, P17026): 4.71
PRISMA enrichment of interactor (log2) (ZNF687, Q8N1G0): 4.29
PRISMA enrichment of interactor (log2) (hCG_2014768): 4.95
